Reference: publication PMC5673980
Results are given in words; binding and its absence hold for the method and conditions named. Binding seen in cells or lysates may run through a third protein. Some results given as binding are weak or reduced against the parent protein; the word gives no strength. Where a sequence is shown, tags or fusion partners need not be part of it.

B1: FLAG-tagged RIG-I (full length) (protein, UniProt O95786 1-925)
chain: MTTEQRRSLQAFQDYIRKTLDPTYILSYMAPWFREEEVQYIQAEKNNKGPMEAATLFLKFLLELQEEGWFRGFLDALDHAGYSGLYEAIESWDFKKIEKLEEYRLLLKRLQPEFKTRIIPTDIISDLSECLINQECEEILQICSTKGMMAGAEKLVECLLRSDKENWPKTLKLALEKERNKFSELWIVEKGIKDVETEDLEDKMETSDIQIFYQEDPECQNLSENSCPPSEVSDTNLYSPFKPRNYQLELALPAMKGKNTIICAPTGCGKTFVSLLICEHHLKKFPQGQKGKVVFFANQIPVYEQQKSVFSKYFERHGYRVTGISGATAENVPVEQIVENNDIIILTPQILVNNLKKGTIPSLSIFTLMIFDECHNTSKQHPYNMIMFNYLDQKLGGSSGPLPQVIGLTASVGVGDAKNTDEALDYICKLCASLDASVIATVKHNLEELEQVVYKPQKFFRKVESRISDKFKYIIAQLMRDTESLAKRICKDLENLSQIQNREFGTQKYEQWIVTVQKACMVFQMPDKDEESRICKALFLYTSHLRKYNDALIISEHARMKDALDYLKDFFSNVRAAGFDEIEQDLTQRFEEKLQELESVSRDPSNENPKLEDLCFILQEEYHLNPETITILFVKTRALVDALKNWIEGNPKLSFLKPGILTGRGKTNQNTGMTLPAQKCILDAFKASGDHNILIATSVADEGIDIAQCNLVILYEYVGNVIKMIQTRGRGRARGSKCFLLTSNAGVIEKEQINMYKEKMMNDSILRLQTWDEAVFREKILHIQTHEKFIRDSQEKPKPVPDKENKKLLCRKCKALACYTADVRVIEECHYTVLGDAFKECFVSRPHPKPKQFSSFEKRAKIFCARQNCSHDWGIHVKYKTFEIPVIKIESFVVEDIATGVQTLYSKWKDFHFEKIPFDPAEMSK
B2: FLAG-tagged RIG-I-CARD (domain or fragment, UniProt O95786 1-284)
chain: MTTEQRRSLQAFQDYIRKTLDPTYILSYMAPWFREEEVQYIQAEKNNKGPMEAATLFLKFLLELQEEGWFRGFLDALDHAGYSGLYEAIESWDFKKIEKLEEYRLLLKRLQPEFKTRIIPTDIISDLSECLINQECEEILQICSTKGMMAGAEKLVECLLRSDKENWPKTLKLALEKERNKFSELWIVEKGIKDVETEDLEDKMETSDIQIFYQEDPECQNLSENSCPPSEVSDTNLYSPFKPRNYQLELALPAMKGKNTIICAPTGCGKTFVSLLICEHHLKK

How the values were obtained:
[1] = biological target: T1, La/SS-B (endogenous La) (human (endogenous in HEK 293 T)) (UniProt P05455); assay: co-IP; HEK 293 T cells transfected with FLAG-RIG-I, stimulated 1, 3 or 6 h with 1 ug 5'ppp-dsRNA; EBC lysis buffer; endogenous La precipitated with SW5 anti-La antibody on protein A sepharose; RIG-I detected by anti-FLAG western blot
T1 sequence: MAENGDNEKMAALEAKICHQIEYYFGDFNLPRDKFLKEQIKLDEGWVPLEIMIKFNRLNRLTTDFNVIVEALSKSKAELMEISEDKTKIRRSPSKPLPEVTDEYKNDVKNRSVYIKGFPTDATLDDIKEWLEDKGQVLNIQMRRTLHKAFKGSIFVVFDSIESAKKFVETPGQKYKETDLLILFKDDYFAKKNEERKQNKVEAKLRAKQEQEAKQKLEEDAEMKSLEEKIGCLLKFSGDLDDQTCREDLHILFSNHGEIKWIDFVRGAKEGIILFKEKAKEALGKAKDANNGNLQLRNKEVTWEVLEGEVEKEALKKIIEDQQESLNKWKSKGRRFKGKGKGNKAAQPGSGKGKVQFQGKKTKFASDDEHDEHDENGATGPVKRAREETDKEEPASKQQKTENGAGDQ

[2] = biological target: T2, N-terminal-only (aa 1-204) His-tagged recombinant La (7 A) (UniProt P05455); assay: pull-down; about 1 ug His-tagged recombinant La (full length or aa 1-204) on 50 ul Nickel agarose beads incubated 2 h at 4 C with lysates (EBC buffer) of HEK 293 T cells over-expressing FLAG-RIG-I constructs; washed three times with EBC buffer; western blot; only the target purified
T2 sequence: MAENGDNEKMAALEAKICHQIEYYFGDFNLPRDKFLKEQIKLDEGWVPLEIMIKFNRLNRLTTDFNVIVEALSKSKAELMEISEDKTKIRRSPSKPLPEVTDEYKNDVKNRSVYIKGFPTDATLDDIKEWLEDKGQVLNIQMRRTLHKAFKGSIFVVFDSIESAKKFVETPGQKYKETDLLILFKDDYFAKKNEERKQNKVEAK

[3] = biological target: T3, full-length His-tagged recombinant La (8 A) (UniProt P05455); assay: as above
T3 sequence: T1 sequence

Binder | binding [1] | binding [2] | binding [3]
B1 | binds | binds | binds
B2 |  | binds | binds
